Data as given in article PMC10238197, “Deafness‐Associated ADGRV1 Mutation Impairs USH2A Stability through Improper Phosphorylation of WHRN and WDSUB1 Recruitment” (Advanced Science, 2023).
Results are given in words; binding and its absence hold for the method and conditions named. In cells and extracts the contact can be indirect. Some results given as binding are weak or reduced against the parent protein; the word gives no strength. Tags and fused reporters may be left off the sequences shown.

Legend:
Experiment in all cases: FRET or BRET; intermolecular FlAsH-BRET saturation in HEK293 cells: fixed amount of WHRN-Nluc, increasing ADGRV1-FlAsH or USH2A-FlAsH; 2.5 µM FlAsH-EDT2, 5 µM coelenterazine-h; net BRET Em530/Em485
[1] = molecular target: T1, WHRN-Nluc (Z1-L) I157A (mouse) (UniProt Q80VW5)
T1 sequence: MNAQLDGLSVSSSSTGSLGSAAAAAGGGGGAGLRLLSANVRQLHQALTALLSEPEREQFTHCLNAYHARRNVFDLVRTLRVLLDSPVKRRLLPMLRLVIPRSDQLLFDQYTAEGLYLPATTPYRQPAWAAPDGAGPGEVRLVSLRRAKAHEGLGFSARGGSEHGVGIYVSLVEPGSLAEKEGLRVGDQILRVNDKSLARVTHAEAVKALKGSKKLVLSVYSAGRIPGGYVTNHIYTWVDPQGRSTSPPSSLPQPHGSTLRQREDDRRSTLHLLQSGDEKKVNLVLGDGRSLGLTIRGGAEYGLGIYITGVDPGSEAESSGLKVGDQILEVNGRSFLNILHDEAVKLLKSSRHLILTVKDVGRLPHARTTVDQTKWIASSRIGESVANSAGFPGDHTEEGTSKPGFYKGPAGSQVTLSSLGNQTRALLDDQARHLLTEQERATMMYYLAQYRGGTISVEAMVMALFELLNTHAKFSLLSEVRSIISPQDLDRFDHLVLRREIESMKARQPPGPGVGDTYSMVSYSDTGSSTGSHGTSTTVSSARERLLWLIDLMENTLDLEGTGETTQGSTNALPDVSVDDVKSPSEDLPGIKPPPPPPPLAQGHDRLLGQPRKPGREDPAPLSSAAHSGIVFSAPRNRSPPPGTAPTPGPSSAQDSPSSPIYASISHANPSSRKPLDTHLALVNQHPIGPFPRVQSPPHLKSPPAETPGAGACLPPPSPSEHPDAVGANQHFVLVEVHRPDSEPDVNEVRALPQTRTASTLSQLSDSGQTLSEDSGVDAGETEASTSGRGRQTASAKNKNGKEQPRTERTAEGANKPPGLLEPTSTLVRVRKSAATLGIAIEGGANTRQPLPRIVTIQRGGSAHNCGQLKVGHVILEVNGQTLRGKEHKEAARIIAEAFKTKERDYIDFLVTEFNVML

[2] = molecular target: T2, WHRN-Nluc (Z1-L) V206A (mouse) (UniProt Q80VW5)
T2 sequence: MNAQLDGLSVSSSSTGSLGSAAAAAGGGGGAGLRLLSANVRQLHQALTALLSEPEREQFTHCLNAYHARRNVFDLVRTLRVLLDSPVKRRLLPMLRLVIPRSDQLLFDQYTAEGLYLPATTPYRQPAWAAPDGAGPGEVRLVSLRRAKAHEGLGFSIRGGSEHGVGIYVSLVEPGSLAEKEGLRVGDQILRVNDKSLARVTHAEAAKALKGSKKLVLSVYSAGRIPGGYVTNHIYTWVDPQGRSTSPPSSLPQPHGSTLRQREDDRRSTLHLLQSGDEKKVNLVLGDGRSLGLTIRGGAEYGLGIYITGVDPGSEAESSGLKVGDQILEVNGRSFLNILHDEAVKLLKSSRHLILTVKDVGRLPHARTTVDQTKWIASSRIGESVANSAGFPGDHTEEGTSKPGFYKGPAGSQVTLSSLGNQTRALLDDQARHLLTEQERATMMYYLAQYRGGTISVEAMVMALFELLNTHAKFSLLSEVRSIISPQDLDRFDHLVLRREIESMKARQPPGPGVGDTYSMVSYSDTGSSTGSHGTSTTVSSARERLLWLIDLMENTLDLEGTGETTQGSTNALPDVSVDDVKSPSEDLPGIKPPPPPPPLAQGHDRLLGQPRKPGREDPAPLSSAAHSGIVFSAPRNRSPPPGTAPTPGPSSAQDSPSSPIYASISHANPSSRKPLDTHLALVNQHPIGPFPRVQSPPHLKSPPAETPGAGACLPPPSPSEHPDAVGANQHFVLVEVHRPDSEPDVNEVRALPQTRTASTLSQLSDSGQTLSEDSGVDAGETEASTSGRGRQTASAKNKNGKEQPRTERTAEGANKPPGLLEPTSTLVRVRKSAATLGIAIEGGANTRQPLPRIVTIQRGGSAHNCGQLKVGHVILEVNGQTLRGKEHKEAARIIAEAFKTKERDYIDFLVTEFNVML

[3] = molecular target: T3, WHRN-Nluc (Z1-L) K207A (mouse) (UniProt Q80VW5)
T3 sequence: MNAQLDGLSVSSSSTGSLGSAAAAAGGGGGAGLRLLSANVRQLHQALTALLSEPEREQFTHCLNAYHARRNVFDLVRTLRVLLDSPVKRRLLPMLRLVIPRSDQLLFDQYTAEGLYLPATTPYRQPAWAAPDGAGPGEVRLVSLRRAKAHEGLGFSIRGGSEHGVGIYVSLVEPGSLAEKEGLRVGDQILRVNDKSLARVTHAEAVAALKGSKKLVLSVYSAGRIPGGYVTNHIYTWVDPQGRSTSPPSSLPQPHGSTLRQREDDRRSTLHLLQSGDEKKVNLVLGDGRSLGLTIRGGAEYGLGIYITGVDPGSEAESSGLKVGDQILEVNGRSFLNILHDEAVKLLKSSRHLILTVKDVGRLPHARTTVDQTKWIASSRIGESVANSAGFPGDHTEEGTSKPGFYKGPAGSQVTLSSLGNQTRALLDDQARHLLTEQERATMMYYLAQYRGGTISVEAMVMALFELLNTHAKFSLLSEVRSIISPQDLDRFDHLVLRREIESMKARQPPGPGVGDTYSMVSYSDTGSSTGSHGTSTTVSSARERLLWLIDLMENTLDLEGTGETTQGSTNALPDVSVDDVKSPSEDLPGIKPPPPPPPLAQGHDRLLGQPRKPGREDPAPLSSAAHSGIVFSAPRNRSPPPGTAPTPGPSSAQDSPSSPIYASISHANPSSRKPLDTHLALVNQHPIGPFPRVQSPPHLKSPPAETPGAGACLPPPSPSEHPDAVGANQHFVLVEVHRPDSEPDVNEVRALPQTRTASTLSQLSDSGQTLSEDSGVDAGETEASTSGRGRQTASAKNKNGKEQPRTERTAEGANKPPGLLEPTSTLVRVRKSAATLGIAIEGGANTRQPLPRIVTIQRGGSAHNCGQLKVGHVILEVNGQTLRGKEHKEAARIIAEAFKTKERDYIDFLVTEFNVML

Measured: binding

B1: USH2A-FlAsH (domain or fragment, UniProt Q2QI47 4819-5193)
chain: PPSGLSPPQVQTLGSRMASVHWTPPLLPNGVIHSYELQLQRACPPDSAPRCPPSHTERKYWGPGHRASLAGLQPNTAYGVQVVAYNEAGSTASGWTNFSTKKEMPQYQALFSVDSNASMVWVDWSGTFLLNGHLKEYVVTDGGRRVYSGLDTTLYIPRMVDKIFFFQVTCTTDIGSVKTPLVQYDAATGSGLVLTTPGEKKGAGTKSTEFYSELWFIMVMAVVGLILLAIFLSLILQRKIHKEPCIRERPPLVPLQKRMTPLSVYPPGETHVGLADTRLPRSGTPMSIRSSQSVSVLRIPSQSQLSHAYSQSSLHRSVSQLMDMADKKVVTEDSLWETIMGHSSGLYVDEEELMNAIKGFSSVTKEHTAFTDTHL
modifications: FlAsH-EDT2 label on the CCPGCC motif
binds: all assays above
